The assay concerns the target iNOS, endogenous in primary human monocytes (human (endogenous in primary human monocytes)) (UniProt P35228). Put plainly: proximity ligation.

The chains behind the UniProt entries cited, without tags or fusion partners.
UniProt P35228: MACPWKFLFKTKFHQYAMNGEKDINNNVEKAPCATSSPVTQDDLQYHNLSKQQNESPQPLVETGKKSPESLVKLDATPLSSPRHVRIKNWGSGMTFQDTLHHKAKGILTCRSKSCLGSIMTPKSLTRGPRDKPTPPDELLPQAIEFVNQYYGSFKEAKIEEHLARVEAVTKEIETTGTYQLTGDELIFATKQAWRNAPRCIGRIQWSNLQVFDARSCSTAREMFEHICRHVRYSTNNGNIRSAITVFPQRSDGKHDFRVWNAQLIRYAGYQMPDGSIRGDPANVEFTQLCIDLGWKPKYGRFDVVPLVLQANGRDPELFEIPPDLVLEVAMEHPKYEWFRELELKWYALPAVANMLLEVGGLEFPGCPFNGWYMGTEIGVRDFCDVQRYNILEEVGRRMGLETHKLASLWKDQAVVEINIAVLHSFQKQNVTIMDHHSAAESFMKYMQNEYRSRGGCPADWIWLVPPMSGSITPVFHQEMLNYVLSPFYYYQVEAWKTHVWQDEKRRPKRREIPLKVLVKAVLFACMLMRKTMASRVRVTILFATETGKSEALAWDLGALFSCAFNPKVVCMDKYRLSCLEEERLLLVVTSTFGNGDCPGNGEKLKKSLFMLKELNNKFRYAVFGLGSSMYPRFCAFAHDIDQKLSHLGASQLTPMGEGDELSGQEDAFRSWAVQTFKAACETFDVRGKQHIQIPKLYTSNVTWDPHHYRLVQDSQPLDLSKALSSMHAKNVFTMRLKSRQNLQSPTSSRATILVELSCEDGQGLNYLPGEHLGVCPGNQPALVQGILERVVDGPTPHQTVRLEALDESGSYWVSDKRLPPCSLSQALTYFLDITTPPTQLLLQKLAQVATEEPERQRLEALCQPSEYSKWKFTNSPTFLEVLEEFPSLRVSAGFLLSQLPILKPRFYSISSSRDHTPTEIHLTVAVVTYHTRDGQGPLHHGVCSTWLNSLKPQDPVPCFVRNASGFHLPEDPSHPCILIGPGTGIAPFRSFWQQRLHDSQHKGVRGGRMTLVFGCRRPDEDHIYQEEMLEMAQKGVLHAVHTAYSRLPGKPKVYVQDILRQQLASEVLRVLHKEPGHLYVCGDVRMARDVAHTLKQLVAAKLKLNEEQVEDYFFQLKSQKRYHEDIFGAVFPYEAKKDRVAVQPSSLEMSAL

Results are given in words; binding and its absence hold for the method and conditions named. In cells and extracts the contact can be indirect. Some results given as binding are weak or reduced against the parent protein; the word gives no strength.

B1: NOSIP, endogenous in primary human monocytes (protein, UniProt Q9Y314 1-301)
chain: MTRHGKNCTAGAVYTYHEKKKDTAASGYGTQNIRLSRDAVKDFDCCCLSLQPCHDPVVTPDGYLYEREAILEYILHQKKEIARQMKAYEKQRGTRREEQKELQRAASQDHVRGFLEKESAIVSRPLNPFTAKALSGTSPDDVQPGPSVGPPSKDKDKVLPSFWIPSLTPEAKATKLEKPSRTVTCPMSGKPLRMSDLTPVHFTPLDSSVDRVGLITRSERYVCAVTRDSLSNATPCAVLRPSGAVVTLECVEKLIRKDMVDPVTGDKLTDRDIIVLQRGGTGFAGSGVKLQAEKSRPVMQA
For the molecule B1, the binding entry was “binds”.

The record behind these values is article doi:10.1101/038398.
